The other results are listed elsewhere or left out.

Amino acid sequences for entries named in this document (tags omitted). A change or cut given only in a name is not applied to a line headed by its entry.
UniProt O75569: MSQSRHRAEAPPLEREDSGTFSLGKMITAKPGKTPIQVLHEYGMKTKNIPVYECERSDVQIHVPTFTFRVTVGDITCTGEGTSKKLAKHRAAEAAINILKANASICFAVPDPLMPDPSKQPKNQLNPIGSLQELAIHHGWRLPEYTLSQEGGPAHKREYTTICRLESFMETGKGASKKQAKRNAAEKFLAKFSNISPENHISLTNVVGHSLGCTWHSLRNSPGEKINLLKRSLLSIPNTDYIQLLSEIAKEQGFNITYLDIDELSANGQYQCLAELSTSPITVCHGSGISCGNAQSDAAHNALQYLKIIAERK
UniProt Q9ULJ8: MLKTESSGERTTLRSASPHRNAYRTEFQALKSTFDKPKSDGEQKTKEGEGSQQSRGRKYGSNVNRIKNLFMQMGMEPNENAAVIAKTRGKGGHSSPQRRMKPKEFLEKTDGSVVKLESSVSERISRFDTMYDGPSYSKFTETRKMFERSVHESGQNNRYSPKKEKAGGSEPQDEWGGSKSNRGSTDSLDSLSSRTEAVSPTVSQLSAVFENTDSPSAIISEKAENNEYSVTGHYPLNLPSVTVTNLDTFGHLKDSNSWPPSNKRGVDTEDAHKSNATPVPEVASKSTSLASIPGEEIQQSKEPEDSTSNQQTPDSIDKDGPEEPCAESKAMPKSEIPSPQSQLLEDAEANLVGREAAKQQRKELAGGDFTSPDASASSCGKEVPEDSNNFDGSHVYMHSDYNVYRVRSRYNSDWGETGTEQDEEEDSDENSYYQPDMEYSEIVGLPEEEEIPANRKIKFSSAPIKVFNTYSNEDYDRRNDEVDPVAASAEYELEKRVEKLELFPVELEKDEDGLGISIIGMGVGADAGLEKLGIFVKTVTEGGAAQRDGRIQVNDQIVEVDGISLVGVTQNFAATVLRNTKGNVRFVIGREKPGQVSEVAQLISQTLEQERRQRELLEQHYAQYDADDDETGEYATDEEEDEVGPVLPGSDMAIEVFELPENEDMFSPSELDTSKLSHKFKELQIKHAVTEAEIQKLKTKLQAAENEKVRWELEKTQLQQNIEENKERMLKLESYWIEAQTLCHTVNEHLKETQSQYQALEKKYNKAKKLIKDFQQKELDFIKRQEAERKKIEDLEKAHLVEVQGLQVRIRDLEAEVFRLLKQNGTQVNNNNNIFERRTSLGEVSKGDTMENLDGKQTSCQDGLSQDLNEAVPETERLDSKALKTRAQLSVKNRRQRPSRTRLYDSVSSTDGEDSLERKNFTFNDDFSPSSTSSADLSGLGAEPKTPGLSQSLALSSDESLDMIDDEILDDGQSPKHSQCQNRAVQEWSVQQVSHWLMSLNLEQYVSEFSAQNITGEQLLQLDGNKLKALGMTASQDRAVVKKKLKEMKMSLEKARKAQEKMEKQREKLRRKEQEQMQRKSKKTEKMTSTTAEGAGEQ
UniProt Q13362, whole entry, looked up: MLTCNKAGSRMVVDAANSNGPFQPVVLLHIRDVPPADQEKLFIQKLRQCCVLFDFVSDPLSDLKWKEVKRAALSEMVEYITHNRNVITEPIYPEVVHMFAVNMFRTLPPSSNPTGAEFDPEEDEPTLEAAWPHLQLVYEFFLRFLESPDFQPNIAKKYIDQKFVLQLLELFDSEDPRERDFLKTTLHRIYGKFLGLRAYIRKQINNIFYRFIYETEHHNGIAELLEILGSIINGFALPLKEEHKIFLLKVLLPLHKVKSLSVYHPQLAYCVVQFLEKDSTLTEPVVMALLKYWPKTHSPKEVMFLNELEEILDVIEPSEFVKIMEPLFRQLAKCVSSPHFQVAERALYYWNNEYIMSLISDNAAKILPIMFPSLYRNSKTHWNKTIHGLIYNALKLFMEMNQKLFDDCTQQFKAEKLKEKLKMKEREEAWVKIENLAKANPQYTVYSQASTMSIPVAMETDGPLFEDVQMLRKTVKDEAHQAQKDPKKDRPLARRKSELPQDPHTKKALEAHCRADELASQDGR
UniProt Q16378: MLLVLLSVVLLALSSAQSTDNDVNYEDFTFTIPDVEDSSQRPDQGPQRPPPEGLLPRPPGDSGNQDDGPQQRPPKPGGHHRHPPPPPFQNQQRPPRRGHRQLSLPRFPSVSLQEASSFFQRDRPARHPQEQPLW
UniProt Q13029: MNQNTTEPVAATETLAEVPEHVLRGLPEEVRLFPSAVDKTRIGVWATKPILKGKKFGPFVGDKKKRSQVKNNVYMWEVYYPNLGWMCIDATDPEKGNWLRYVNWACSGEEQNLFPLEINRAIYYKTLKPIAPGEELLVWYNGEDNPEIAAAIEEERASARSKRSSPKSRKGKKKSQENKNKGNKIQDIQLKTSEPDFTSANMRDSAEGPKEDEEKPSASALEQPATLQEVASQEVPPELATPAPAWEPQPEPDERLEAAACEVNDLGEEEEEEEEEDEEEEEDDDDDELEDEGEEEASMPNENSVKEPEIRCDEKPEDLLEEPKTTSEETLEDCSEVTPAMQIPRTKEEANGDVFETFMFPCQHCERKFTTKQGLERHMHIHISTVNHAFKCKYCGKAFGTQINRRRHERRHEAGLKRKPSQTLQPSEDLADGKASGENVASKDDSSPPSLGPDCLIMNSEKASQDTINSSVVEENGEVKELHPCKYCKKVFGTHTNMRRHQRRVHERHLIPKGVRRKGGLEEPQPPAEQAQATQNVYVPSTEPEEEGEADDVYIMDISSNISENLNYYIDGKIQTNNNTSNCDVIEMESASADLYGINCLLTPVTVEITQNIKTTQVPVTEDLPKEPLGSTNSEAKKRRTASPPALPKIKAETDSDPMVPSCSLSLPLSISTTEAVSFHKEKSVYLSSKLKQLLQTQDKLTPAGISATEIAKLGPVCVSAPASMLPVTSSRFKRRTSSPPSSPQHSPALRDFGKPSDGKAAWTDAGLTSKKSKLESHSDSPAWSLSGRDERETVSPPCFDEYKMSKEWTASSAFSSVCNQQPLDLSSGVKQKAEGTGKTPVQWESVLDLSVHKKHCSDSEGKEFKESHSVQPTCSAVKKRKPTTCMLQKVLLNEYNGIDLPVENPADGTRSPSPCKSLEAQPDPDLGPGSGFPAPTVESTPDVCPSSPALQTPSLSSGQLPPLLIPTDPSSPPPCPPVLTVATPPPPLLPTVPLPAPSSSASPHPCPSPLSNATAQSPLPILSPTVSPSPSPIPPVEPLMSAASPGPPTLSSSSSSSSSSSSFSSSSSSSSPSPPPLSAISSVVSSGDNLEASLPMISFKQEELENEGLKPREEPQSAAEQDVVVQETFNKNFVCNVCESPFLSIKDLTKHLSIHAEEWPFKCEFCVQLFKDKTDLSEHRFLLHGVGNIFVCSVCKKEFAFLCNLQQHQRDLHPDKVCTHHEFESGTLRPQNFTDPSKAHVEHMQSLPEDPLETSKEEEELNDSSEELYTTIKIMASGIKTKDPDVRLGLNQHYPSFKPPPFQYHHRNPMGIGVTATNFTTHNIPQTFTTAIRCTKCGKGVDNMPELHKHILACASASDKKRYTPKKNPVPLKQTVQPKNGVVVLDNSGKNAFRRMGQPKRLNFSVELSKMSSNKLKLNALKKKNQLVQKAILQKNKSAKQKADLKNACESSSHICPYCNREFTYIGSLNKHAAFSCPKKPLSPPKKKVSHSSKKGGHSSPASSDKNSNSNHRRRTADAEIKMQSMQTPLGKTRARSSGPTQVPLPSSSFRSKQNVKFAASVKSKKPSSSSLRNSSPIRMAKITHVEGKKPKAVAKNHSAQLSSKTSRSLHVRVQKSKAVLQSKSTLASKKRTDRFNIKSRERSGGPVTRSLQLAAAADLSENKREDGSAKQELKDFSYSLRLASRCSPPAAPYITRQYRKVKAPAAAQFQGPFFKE
UniProt P79522: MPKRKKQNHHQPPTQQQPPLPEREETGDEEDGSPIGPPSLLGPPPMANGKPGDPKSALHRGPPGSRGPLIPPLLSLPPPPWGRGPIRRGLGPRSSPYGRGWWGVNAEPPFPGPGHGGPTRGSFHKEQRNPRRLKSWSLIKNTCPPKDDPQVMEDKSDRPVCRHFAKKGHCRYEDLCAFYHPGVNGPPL
UniProt O95685: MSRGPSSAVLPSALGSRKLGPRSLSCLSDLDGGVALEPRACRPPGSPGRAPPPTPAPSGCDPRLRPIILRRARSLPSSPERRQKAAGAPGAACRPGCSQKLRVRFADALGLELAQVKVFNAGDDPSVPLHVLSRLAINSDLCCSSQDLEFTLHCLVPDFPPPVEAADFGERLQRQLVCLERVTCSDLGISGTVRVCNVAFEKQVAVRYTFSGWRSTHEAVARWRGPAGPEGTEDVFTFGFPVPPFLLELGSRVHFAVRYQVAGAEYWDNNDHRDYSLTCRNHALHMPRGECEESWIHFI
UniProt Q8N945: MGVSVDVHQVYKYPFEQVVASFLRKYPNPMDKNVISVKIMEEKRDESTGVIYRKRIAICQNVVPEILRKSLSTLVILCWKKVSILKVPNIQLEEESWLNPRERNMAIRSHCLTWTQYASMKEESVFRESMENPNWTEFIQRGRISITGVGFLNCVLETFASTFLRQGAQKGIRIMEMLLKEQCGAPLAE
UniProt Q8NI37: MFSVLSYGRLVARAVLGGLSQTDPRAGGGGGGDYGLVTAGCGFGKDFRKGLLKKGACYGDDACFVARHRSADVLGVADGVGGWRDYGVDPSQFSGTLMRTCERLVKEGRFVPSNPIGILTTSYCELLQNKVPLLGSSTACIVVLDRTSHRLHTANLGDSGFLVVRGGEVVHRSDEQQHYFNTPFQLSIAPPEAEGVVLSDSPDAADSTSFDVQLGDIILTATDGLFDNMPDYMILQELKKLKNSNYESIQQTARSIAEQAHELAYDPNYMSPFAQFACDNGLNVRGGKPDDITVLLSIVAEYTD
UniProt O14668: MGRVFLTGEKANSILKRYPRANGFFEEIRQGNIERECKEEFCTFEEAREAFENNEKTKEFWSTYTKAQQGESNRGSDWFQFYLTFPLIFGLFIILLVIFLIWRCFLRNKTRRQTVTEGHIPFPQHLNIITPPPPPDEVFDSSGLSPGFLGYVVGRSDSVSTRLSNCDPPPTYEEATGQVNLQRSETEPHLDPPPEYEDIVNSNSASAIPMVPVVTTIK
UniProt Q9BSG0: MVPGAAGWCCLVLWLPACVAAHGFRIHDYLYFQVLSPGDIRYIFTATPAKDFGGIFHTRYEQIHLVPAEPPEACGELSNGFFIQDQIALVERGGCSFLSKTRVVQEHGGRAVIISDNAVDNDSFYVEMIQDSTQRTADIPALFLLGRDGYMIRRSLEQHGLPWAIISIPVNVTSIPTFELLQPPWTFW

Compound in the experiment: C1COCCN1CCN2C3=CC=CC=C3N=C2NC(=O)C4=CC(=CC=C4)[N+](=O)[O-] [IRAK-1-4 Inhibitor I]
The experiment is described as follows: log2 fold change, soluble protein after heating vs DMSO (PISA); higher = thermal stabilisation; K562 cells, 10 uM, 30 min; active = over 0.2 and 3.5 SD of the protein, either way, in both replicates (recomputed). In a few lines:
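K562 cells (2×10^6 cells/mL) were treated with 10 μM compound for 30 min, and aliquots were heated for 3 min over 48°C-58°C. Pooled aliquots were extracted in PBS with 0.5% NP-40 at 4°C, and the supernatant after 21,000xg for 90 min was measured by TMTpro 16plex LC-MS/MS with channel sums equalised. Reported thermal stability, relative to control samples and from duplicates, is a log2 fold change.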
Regarding PRKRA (UniProt O75569), the log2 fold change was inactive: -0.205.

For the target PPP1R9A isoform 3 (UniProt Q9ULJ8), the log2 fold change was inactive: -0.145.

For the target PPP2R5C isoform 2 (UniProt Q13362), the log2 fold change was inactive: -0.036. Consider PRR4 (UniProt Q16378), for which the log2 fold change is inactive: -0.278. Regarding PRDM2 (UniProt Q13029), the log2 fold change is inactive: 0.084.

With PRR3 (UniProt P79522), the log2 fold change is inactive: -0.076. For the target PPP1R3D (UniProt O95685), the log2 fold change is inactive: 0.095.

Turning to PRELID2 (UniProt Q8N945), the log2 fold change is inactive: -0.004.

For PPTC7 (UniProt Q8NI37), the log2 fold change is inactive: -0.051. Take PRRG1 (UniProt O14668): the log2 fold change is inactive: 0.009.

In the case of PRADC1 (UniProt Q9BSG0), the log2 fold change is inactive: 0.066.

These data come from the supplement of paper PMC10849652.
